{"source": "PubChem BioAssay AID652243, Drosophila RNAi Screening Center – 2013", "assay": "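Knock-downs that decrease or increase androgen receptor reporter signal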 (primary screen)", "cells": "Drosophila S2R+ cells", "reagents": "long dsRNA against Drosophila genes", "timing": "72 h (48 h, then 24 h hormone)", "challenge": "synthetic androgen R1881 at 10 nM for 24 h", "measurement": "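Firefly light from an androgen-responsive reporter and Renilla control light per well, raw and unnormalised, for each of two replicates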", "reading the numbers": "firefly reporter light: higher = more light from androgen-responsive reporter; Renilla control light: higher = more constitutive control signal (cell number, transfection)", "call rule": "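Hit when the log firefly-to-Renilla ratio dropped or increased by a fixed fold versus the mean of GFP or LacZ controls across duplicate plates; lowering cut given as 1.5 and as 3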", "calls": "active = hit: reporter lowered or raised; inactive = no hit", "note": "The deposit covers about 24,000 reagents; below is a random part of those with a known target gene and a result. Over the whole deposit, 246 (1%) were called active. 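Plates not normalised; calls are printed but the firefly/Renilla ratio behind them is not deposited; fold cut for lowering reported inconsistently.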 The raw values are shown without normalisation. A plus sign joins genes that one reagent is predicted to hit. The record does not give: the amount of reagent."}
The first 2 entries, ahead of the listing:
{"Gene": "Dscam3 (GeneID 42103)", "DRSC id": "DRSC14525", "firefly reporter light, replicate 1": 1.09e5, "firefly reporter light, replicate 2": 1.51e5, "Renilla control light, replicate 1": 1.64e6, "Renilla control light, replicate 2": 1.96e6, "Call": "inactive"}
{"Gene": "Dscam3 (GeneID 42103)", "DRSC id": "DRSC16376", "firefly reporter light, replicate 1": 1.93e5, "firefly reporter light, replicate 2": 1.58e5, "Renilla control light, replicate 1": 2.76e6, "Renilla control light, replicate 2": 2.26e6, "Call": "inactive"}

The listing, repeating the preview:
{"Gene": "Dscam3 (GeneID 42103)", "DRSC id": "DRSC14525", "firefly reporter light, replicate 1": 1.09e5, "firefly reporter light, replicate 2": 1.51e5, "Renilla control light, replicate 1": 1.64e6, "Renilla control light, replicate 2": 1.96e6, "Call": "inactive"}
{"Gene": "Dscam3 (GeneID 42103)", "DRSC id": "DRSC16376", "firefly reporter light, replicate 1": 1.93e5, "firefly reporter light, replicate 2": 1.58e5, "Renilla control light, replicate 1": 2.76e6, "Renilla control light, replicate 2": 2.26e6, "Call": "inactive"}
{"Gene": "CG32301 (GeneID 38285)", "DRSC id": "DRSC08613", "firefly reporter light, replicate 1": 68729, "firefly reporter light, replicate 2": 93240, "Renilla control light, replicate 1": 9.28e5, "Renilla control light, replicate 2": 1.06e6, "Call": "inactive"}
{"Gene": "Mettl4 + CG14907", "DRSC id": "DRSC26716", "firefly reporter light, replicate 1": 2.50e5, "firefly reporter light, replicate 2": 2.68e5, "Renilla control light, replicate 1": 7.70e5, "Renilla control light, replicate 2": 6.95e5, "Call": "inactive"}
{"Gene": "kin17 (GeneID 40242)", "DRSC id": "DRSC11890", "firefly reporter light, replicate 1": 1.27e5, "firefly reporter light, replicate 2": 1.39e5, "Renilla control light, replicate 1": 1.80e6, "Renilla control light, replicate 2": 1.14e6, "Call": "inactive"}
{"Gene": "kin17 (GeneID 40242)", "DRSC id": "DRSC26821", "firefly reporter light, replicate 1": 3.92e5, "firefly reporter light, replicate 2": 3.31e5, "Renilla control light, replicate 1": 5.90e5, "Renilla control light, replicate 2": 5.20e5, "Call": "inactive"}
{"Gene": "Secp43 (GeneID 33652)", "DRSC id": "DRSC00454", "firefly reporter light, replicate 1": 1.20e5, "firefly reporter light, replicate 2": 65656, "Renilla control light, replicate 1": 9.82e5, "Renilla control light, replicate 2": 1.01e6, "Call": "inactive"}
{"Gene": "Secp43 (GeneID 33652)", "DRSC id": "DRSC27411", "firefly reporter light, replicate 1": 2.64e5, "firefly reporter light, replicate 2": 2.72e5, "Renilla control light, replicate 1": 8.84e5, "Renilla control light, replicate 2": 9.57e5, "Call": "inactive"}
{"Gene": "fw (GeneID 32162)", "DRSC id": "DRSC20334", "firefly reporter light, replicate 1": 5.11e5, "firefly reporter light, replicate 2": 5.86e5, "Renilla control light, replicate 1": 3.59e6, "Renilla control light, replicate 2": 2.80e6, "Call": "inactive"}
{"Gene": "fw (GeneID 32162)", "DRSC id": "DRSC27087", "firefly reporter light, replicate 1": 3.26e5, "firefly reporter light, replicate 2": 2.95e5, "Renilla control light, replicate 1": 8.22e5, "Renilla control light, replicate 2": 6.48e5, "Call": "inactive"}
{"Gene": "Naxe (GeneID 31944)", "DRSC id": "DRSC18251", "firefly reporter light, replicate 1": 2.16e5, "firefly reporter light, replicate 2": 4.78e5, "Renilla control light, replicate 1": 2.91e6, "Renilla control light, replicate 2": 3.35e6, "Call": "inactive"}
{"Gene": "pcs (GeneID 36674)", "DRSC id": "DRSC07042", "firefly reporter light, replicate 1": 6.25e5, "firefly reporter light, replicate 2": 8.03e5, "Renilla control light, replicate 1": 1.80e6, "Renilla control light, replicate 2": 2.16e6, "Call": "inactive"}
{"Gene": "CG7448 (retired record) (GeneID 40440)", "DRSC id": "DRSC11828", "firefly reporter light, replicate 1": 72875, "firefly reporter light, replicate 2": 81325, "Renilla control light, replicate 1": 5.45e5, "Renilla control light, replicate 2": 5.41e5, "Call": "inactive"}
{"Gene": "CG7448 (retired record) (GeneID 40440)", "DRSC id": "DRSC22485", "firefly reporter light, replicate 1": 5.76e5, "firefly reporter light, replicate 2": 5.62e5, "Renilla control light, replicate 1": 1.52e6, "Renilla control light, replicate 2": 1.83e6, "Call": "inactive"}
{"Gene": "CG12321 (GeneID 42174)", "DRSC id": "DRSC14499", "firefly reporter light, replicate 1": 1.04e5, "firefly reporter light, replicate 2": 92999, "Renilla control light, replicate 1": 6.17e5, "Renilla control light, replicate 2": 5.67e5, "Call": "inactive"}
{"Gene": "CG12321 (GeneID 42174)", "DRSC id": "DRSC28965", "firefly reporter light, replicate 1": 5.20e5, "firefly reporter light, replicate 2": 4.38e5, "Renilla control light, replicate 1": 1.58e6, "Renilla control light, replicate 2": 1.17e6, "Call": "inactive"}
{"Gene": "Cpr11B (GeneID 32203)", "DRSC id": "DRSC19859", "firefly reporter light, replicate 1": 3.38e5, "firefly reporter light, replicate 2": 2.22e5, "Renilla control light, replicate 1": 7.94e5, "Renilla control light, replicate 2": 6.51e5, "Call": "inactive"}
{"Gene": "CG17917 (GeneID 40778)", "DRSC id": "DRSC12570", "firefly reporter light, replicate 1": 80820, "firefly reporter light, replicate 2": 84923, "Renilla control light, replicate 1": 1.70e6, "Renilla control light, replicate 2": 1.56e6, "Call": "inactive"}
{"Gene": "CG14247 (GeneID 43221)", "DRSC id": "DRSC14742", "firefly reporter light, replicate 1": 2.25e5, "firefly reporter light, replicate 2": 2.35e5, "Renilla control light, replicate 1": 3.52e6, "Renilla control light, replicate 2": 3.67e6, "Call": "inactive"}
{"Gene": "CG14247 (GeneID 43221)", "DRSC id": "DRSC24048", "firefly reporter light, replicate 1": 8.75e5, "firefly reporter light, replicate 2": 8.69e5, "Renilla control light, replicate 1": 9.27e5, "Renilla control light, replicate 2": 9.85e5, "Call": "inactive"}
{"Gene": "Ag5r2 (GeneID 44079)", "DRSC id": "DRSC19328", "firefly reporter light, replicate 1": 4.65e5, "firefly reporter light, replicate 2": 4.00e5, "Renilla control light, replicate 1": 3.75e6, "Renilla control light, replicate 2": 3.57e6, "Call": "inactive"}
